Data reported in patent publication US4508711A, “Cyclic pentapeptide displaying somatostatin antagonism and method of treatment of mammals therewith” (American Cyanamid Company, priority 1984, dated 1985).
“Also recorded” adds a separate entry of the source. At least one peptide structure holds a part that was inferred or is arguable (an end, a ring closure or a residue). Where a SMILES comes first, the peptide text is derived from it. [ ]: non-standard residue; d: D form. The star is where a group is joined. Ahp = NCCCCCCC(=O)O; Bn = c1ccc(C*)cc1

Experiments:
[1] = tested on: glucagon levels in hepatic portal blood; test: Glucagon levels in hepatic portal blood of fasted rats (RIA); assay type: in vivo, rat
Procedure: (§1) In this evaluation the procedures described by W. A. Murphy et al. Endocrinology 109:491-495 (1980), were employed.
(§2) For measurement of effects on insulin and glucagon levels, rats were fasted 27-30 hours and anesthetized with NEMBUTAL® (5 mg per 100 g body wt). Exactly 21 minutes after NEMBUTAL® injection 0.5 mL of saline or saline containing test peptide was injected into the jugular vein over a 1 minute period. Five minutes later, 3.5 mL of blood were quickly drawn from the hepatic portal vein after rapid laparotomy. Blocking effects of analog on exogenous somatostatin were examined by simultaneous injection of both peptides. Plasma insulin levels were determined using matched insulin RIA kits purchased from Cambridge Nuclear, Billerica, MA. Plasma glucagon was determined using Unger 30K antibody and ^125 I-glucagon (Cambridge Nuclear) as the tracer.

[2] = tested on: insulin levels in hepatic portal blood; test: Insulin levels in hepatic portal blood of fasted rats (RIA); assay type: in vivo, rat; conditions: for Insulin (Mean ± SE): Table III Experiment 1, fasted rats, saline 67 ± 11
Procedure: as §1, §2

[3] = tested on: GH levels in the rat; test: Growth hormone (GH) levels in NEMBUTAL-anesthetized, stimulated rats (RIA); assay type: in vivo; conditions: for GH: Table I Experiment 1, fed rats, blood 15 min after injection, saline 277 ± 40, mean ± SE; for GH (Mean ± SE): anesthetized rats, saline 637 ± 68
Procedure: as §1
In growth hormone (GH) experiments, male rats (Charles Rivers) were anesthetized with NEMBUTAL® (5 mg per 100 g/BW) which also served to maintain stimulated plasma GH levels. Exactly 30 minutes after the rats were anesthetized, 0.5 mL of saline or the test peptide in saline was administered as a sc bolus. A 1 mL blood sample was drawn from the jugular vein 15 minutes after the injection. For examining blocking effects of the analog on somatostatin, the cyclic peptide was given 5 minutes prior to somatostatin. GH levels were determined using NIADDKD rat GH RIA components.

[4] = tested on: somatostatin; test: Somatostatin antagonist activity (stated in words, test not described); conditions: result in words
[5] = injection into rats, result in words

SMILES: C[C@@H](OCc1ccccc1)[C@@H]1NC(=O)[C@H](CCCCN)NC(=O)[C@@H](Cc2c[nH]c3ccccc23)NC(=O)[C@H](Cc2ccccc2)NC(=O)CCCCCCNC1=O [CPP-1, cyclo[7-aminoheptanoyl-Phe-D-Trp-Lys-Thr(Bzl)]] (cyclo([Ahp]F[dW]KT(Bn)))
- Glucagon (Mean ± SE) ([1]; Table III Experiment 1, fasted rats, 0.8 μg/100 g iv, saline 80 ± 5): 79 ± 8 pg/mL
- Glucagon (Mean ± SE) ([1]; Table III Experiment 1, fasted rats, 4.0 μg/100 g iv, saline 80 ± 5): 114 ± 14 pg/mL
- Glucagon (Mean ± SE) ([1]; Table III Experiment 2, fasted rats, 1.0 μg/100 g iv, saline 45 ± 3): 108 ± 17 pg/mL
- Glucagon (Mean ± SE) ([1]; Table III Experiment 2, fasted rats, 1.0 μg/100 g iv, saline 45 ± 3, listed as Thr(Bzl) pentapeptide): 108 ± 77 pg/mL
- Glucagon (Mean ± SE) ([1]; Table III Experiment 2, fasted rats, 5.0 μg/100 g iv, saline 45 ± 3): 147 ± 20 pg/mL
- Glucagon (Mean ± SE) ([1]; Table III Experiment 2, fasted rats, 5.0 μg/100 g iv, saline 45 ± 3, listed as Thr(Bzl) pentapeptide): 147 ± 20 pg/mL
- blocking of the inhibitory effects of exogenous somatostatin on glucagon release [1, 5]: completely blocks
- Insulin (Mean ± SE) ([2]; 0.8 μg/100 g iv): 104 ± 7 μU/mL
- Insulin (Mean ± SE) ([2]; 0.8 μg/100 g iv, listed as Thr(Bzl) pentapeptide): 104±7 μU/mL
- Insulin (Mean ± SE) ([2]; 4.0 μg/100 g iv): 112 ± 21 μU/mL
- Insulin (Mean ± SE) ([2]; 4.0 μg/100 g iv, listed as Thr(Bzl) pentapeptide): 112±21 μU/mL
- blocking of the inhibitory effects of exogenous somatostatin on insulin release [2, 5]: completely blocks
- GH ([3]; 0.2 μg/100 g body weight sc): 357 ± 54 ng/mL
- GH ([3]; 0.6 μg/100 g body weight sc): 547 ± 65 ng/mL
- GH ([3]; 0.6 μg/100 g body weight sc, listed as Thr(Bzl) analog): 547 ± 65 ng/mL
- GH (Mean ± SE) ([3]; Table II, 0.3 μg 100 g BW): 801 ± 67 ng/mL
- GH (Mean ± SE) ([3]; Table II, 0.6 μg 100 g BW): 1160 ± 162 ng/mL
- GH (Mean ± SE) ([3]; Table II, 1.2 μg 100 g BW): 1070 ± 119 ng/mL
- GH (Mean ± SE) ([3]; Table II, 2.4 μg 100 g BW): 804 ± 114 ng/mL
- GH (Mean ± SE) ([3]; Table II, 4.8 μg 100 g BW): 732 ± 220 ng/mL
- effect of higher doses on GH levels ([3]; doses of 2.4 and 4.8 μg, Table II, result in words): did not significantly increase GH levels
- blocking of the inhibitory effects of exogenous somatostatin on growth hormone release [3, 5]: completely blocks

SMILES: NCCCC[C@@H]1NC(=O)[C@@H](Cc2c[nH]c3ccccc23)NC(=O)[C@H](Cc2ccccc2)NC(=O)CCCCCCNC(=O)[C@H](Cc2ccccc2)NC1=O [CPP-2, cyclo(7-aminoheptanoyl-Phe-D-Trp-Lys-Phe), reference compound] (cyclo([Ahp]F[dW]KF))
- GH ([3]; 0.2 μg/100 g body weight sc): 224 ± 68 ng/mL
- GH ([3]; 0.6 μg/100 g body weight sc): 302 ± 61 ng/mL
- effects on GH release ([3]; result in words, Table I, 0.2 and 0.6 μg/100 g): devoid of any effects on GH release

SMILES: C[C@@H](O)[C@@H]1NC(=O)[C@H](CCCCN)NC(=O)[C@@H](Cc2c[nH]c3ccccc23)NC(=O)[C@H](Cc2ccccc2)NC(=O)CCCCCCNC1=O [cyclo(Ahep-Phe-D-Trp-Lys-Thr), cyclo(7-aminoheptanoyl-Phe-D-Trp-Lys-Thr)] (cyclo([Ahp]F[dW]KT))
- somatostatin antagonist activity [4]: essentially devoid of somatostatin antagonist activity; also recorded: little or no somatostatin antagonist activity
